The test system of the test is Salmonella enterica serovar Typhimurium SL1344. Kind of test: bacterial growth OD600 after 18 h with compound and polymyxin B; higher = more bacterial growth (less inhibition). The conditions noted are these: 50 µM, Mueller-Hinton broth.

Each structure is given as a SMILES string. Some of the results follow. These are raw signals, not scaled to a control.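 Primary screen: polymyxin B was added at a level permeabilizing Salmonella outer membranes while sparing inner membranes. DMSO wells, both with and without polymyxin B, established maximum growth. Plate-to-plate variation meant each plate was ranked on its own, and the lowest-OD600 compounds were selected as hits.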

For `Cc1cc(C(=O)N2CCCC(N3CCN(Cc4ccc5c(c4)OCO5)CC3)C2)n(C)n1` (stereo not given), the “bacterial growth OD600” value (polymyxin B 0.75 µg/mL) came to 0.799. In the case of `COc1ccccc1N1CCN(C2CCCN(Cc3cccc(C)n3)C2)CC1` (stereo not given), the “bacterial growth OD600” value (polymyxin B 1 µg/mL) amounted to 1.26. `O=C1CCN(C(=O)CC(c2ccccc2)c2ccccc2Cl)CCN1` (stereo not given): under “polymyxin B 1 µg/mL”, the “bacterial growth OD600” value was found to be 0.869.

As for `CC(CCCC(C)(C)O)NC1CCN(c2ccc(CC(=O)NCCc3cccc(F)c3)cc2)CC1` (stereo not given), the “bacterial growth OD600” value (polymyxin B 0.75 µg/mL) worked out at 0.766. For `CC(=O)c1cccc(OCc2cc(C(=O)N3CCN(C)C(C)C3)n[nH]2)c1` (stereo not given), where the note is “polymyxin B 1 µg/mL”, the “bacterial growth OD600” value is 0.98.

Consider `Cc1oc(-c2ccccc2NS(=O)(=O)Cc2ccccc2)nc1CNC(=O)CC(C)(C)C`, for which the “bacterial growth OD600” value (polymyxin B 0.75 µg/mL) was determined as 0.856. With `Cn1ccnc1CN1CCc2onc(C(c3ccccc3)c3ccccc3)c2C1`, the “bacterial growth OD600” value (polymyxin B 0.75 µg/mL) was found to be 0.008. The same measure, in the same setting: in the case of `Cc1oc(-c2cccc(C(F)(F)F)c2)nc1CN1CCN(c2cnccn2)CC1` it was 0.595. With `CCn1nc(C)c(CNC(=O)C2CCC(=O)N(CCc3ccc(OC)cc3)C2)c1C` (stereo not given), the “bacterial growth OD600” value (polymyxin B 1 µg/mL) came to 0.924. In the case of `COCC1CCCCN1C(=O)c1cc(Cn2ccc3ccccc32)[nH]n1` (stereo not given), the “bacterial growth OD600” value (polymyxin B 0.75 µg/mL) is 0.774.

As to `Fc1cccc(CNC2COc3ccccc3C2)c1F` (stereo not given), for the setting “polymyxin B 0.75 µg/mL”, the “bacterial growth OD600” value stood at 0.698. As for `C=CCC(=O)N(CC1CCN(Cc2ccccc2C)CC1)CC1CCCO1` (stereo not given), for the setting “polymyxin B 1 µg/mL”, the “bacterial growth OD600” value is 1.13. Same read-out and setting: in the case of `O=C(c1cc[n+]([O-])cc1)N1CCC2(CCCN(CCC3CCCCC3)C2)C1` (stereo not given) it was 1.04. For the compound `Cc1c(CNC(=O)C2CCCN(C3CCN(C(C)C)CC3)C2)cnn1C` (stereo not given), the “bacterial growth OD600” value (polymyxin B 0.75 µg/mL) is 0.963.

Turning to `COc1ccc2cc(-c3n[nH]cc3CNC(C)c3cccs3)ccc2c1` (stereo not given), the “bacterial growth OD600” value (polymyxin B 1 µg/mL) was found to be 0.91. On to `O=C(NCc1ccccc1-n1cncn1)C1CCC(=O)N(C2CCCCCC2)C1` (stereo not given), for which the “bacterial growth OD600” value (polymyxin B 1 µg/mL) was determined as 0.964. Regarding `CCOC(=O)C1(Cc2ccc(F)cc2F)CCCN(C(=O)c2cccnc2SC)C1` (stereo not given), where the note is “polymyxin B 1 µg/mL”, the “bacterial growth OD600” value was determined as 1.1. On to `CC(C)N1CC(C(=O)NCc2nc(NCc3cccc(C(F)(F)F)c3)c3ccccc3n2)CC1=O` (stereo not given), for which the “bacterial growth OD600” value (polymyxin B 0.75 µg/mL) was determined as 0.008. The same measure, in the same setting: under `O=C(c1cc(F)c(F)cc1F)N1CCOc2ccc(CN3CCc4sccc4C3)cc2C1` stands 0.003. Take `CCn1ncc(CN2CCN(Cc3cc(OC)cc(OC)c3)C(CCO)C2)c1C` (stereo not given): under “polymyxin B 1 µg/mL”, the “bacterial growth OD600” value turned out to be 0.914.

`CN(Cc1cnc2ccccn12)C(=O)CCN1Cc2ccccc2OC(c2ccccc2F)C1` (stereo not given): the “bacterial growth OD600” value (polymyxin B 0.75 µg/mL) is 0.012.

Turning to `CCOC(=O)C1(CCCc2ccccc2)CCCN(C(=O)c2ccc(COC)o2)C1` (stereo not given), the “bacterial growth OD600” value (polymyxin B 1 µg/mL) turned out to be 0.441. On to `O=C1CCC(CCNCc2cc3c(cc2Cl)OCO3)N1CC(c1cccnc1)N1CCOCC1` (stereo not given), for which the “bacterial growth OD600” value (polymyxin B 0.75 µg/mL) came out at 0.806. With `CN(CCN1CCCCC1)Cc1cnc(S(C)(=O)=O)n1CC1CCCO1` (stereo not given), the “bacterial growth OD600” value (polymyxin B 0.75 µg/mL) was determined as 0.859. Turning to `O[C@H]1CCN(c2ccc(-c3nc(COc4ccccc4)no3)cn2)C1`, the “bacterial growth OD600” value (polymyxin B 1 µg/mL) was 0.798.

For the compound `c1ccc(Cn2cc(CN3CCOCC3)c(-c3cc4ccccc4o3)n2)cc1`, the “bacterial growth OD600” value (polymyxin B 1 µg/mL) came to 0.369.

Regarding `CC(C)(C)C(=O)NC1CC(=O)N(CCc2cccc(Cl)c2)C1` (stereo not given), the “bacterial growth OD600” value (polymyxin B 1 µg/mL) worked out at 0.82. On to `COc1cccc(CC(C2CCN(C(=O)c3csc(C)n3)CC2)N(C)C(=O)c2ccsc2)c1` (stereo not given), for which the “bacterial growth OD600” value (polymyxin B 0.75 µg/mL) was found to be 0.888. As for `COC(=O)c1c(OCC2CCCCO2)cc(=O)n2c1CCN(C(=O)COc1ccc(C)cc1)CC2` (stereo not given), for the setting “polymyxin B 0.75 µg/mL”, the “bacterial growth OD600” value came out at 0.814.

On to `COCCn1c(CN2CCCC(C)C2)cnc1S(=O)(=O)C1CCCCCC1` (stereo not given), for which the “bacterial growth OD600” value (polymyxin B 1 µg/mL) was 0.013.

The record behind these values is the supplement of paper PMC12889115.
